This note sets out measurements from paper PMC4973239, “Crystal structure of the human Tip41 orthologue, TIPRL, reveals a novel fold and a binding site for the PP2Ac C-terminus” (Scientific Reports, 2016).

Experiment [1] concerns the target T1, His-tagged, full length TIPRL (human), O75663.
T1 chain: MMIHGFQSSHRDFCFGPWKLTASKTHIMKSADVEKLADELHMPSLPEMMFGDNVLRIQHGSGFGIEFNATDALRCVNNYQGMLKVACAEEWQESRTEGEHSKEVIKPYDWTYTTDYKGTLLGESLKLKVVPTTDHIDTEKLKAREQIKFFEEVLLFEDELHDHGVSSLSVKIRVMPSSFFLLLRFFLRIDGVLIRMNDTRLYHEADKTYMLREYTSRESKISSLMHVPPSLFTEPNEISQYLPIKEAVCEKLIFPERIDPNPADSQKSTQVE
Kind of experiment: SEC; size exclusion profiles under different conditions (Fig. S1B), high concentration; HiLoad 26/60 Superdex 75 pg, Tris 20 mM pH 7.5, 100 mM NaCl, 10 mM β-mercaptoethanol; both purified. The settings on record: remark: other sources report otherwise.

In experiment [2] the target is T2, full length TIPRL, affinity tag removed (human), O75663.
T2 chain: T1 chain
The experiment is described as above. The following applies: remark: other sources report otherwise.

Results are given in words; binding and its absence hold for the method and conditions named. Sequences can lack the tags named with a protein.

B1: His-tagged, full length TIPRL, O75663-1 1-272 (protein)
chain: T1 chain
Regarding B1, the binding entry in experiment [1] is listed as “no binding”.

B2: full length TIPRL, affinity tag removed, O75663-1 1-272 (protein)
chain: T1 chain
As to B2, the binding result in experiment [2] is reported as “no binding”.
